Library screen at single concentrations

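Assay of Toxoplasma gondii numbers, read through their beta-galactosidase reporter with a colour substrate. Concentration: 10 µM. Higher reads as fewer parasites (inferred from which compounds were picked for retests). Size under these conditions: about 67,000 compounds, about 260 of them at 50% or above in at least one test.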

The filed quantity is “Percent Effect” (%).
The record does not define 0% and 100%; most values in the screen are far below 50% and negative numbers occur (in some assays of this library far below -100).
The compounds are a random part of those screened.

| Compound | effect |
|---|---|
| `CCOCC1c2c(ncn2C(C)C)CCN1C(=O)C1CC1` (stereo not shown) | -12.46 |
| `Cn1cc(C(=O)Nc2cccc(F)c2)ccc1=O` | 3.467 |
| `CN(CCc1ccccc1)Cc1cc(C(=O)N2CCN(C)C(=O)C2)no1` | 14.77 |
| `COc1ccc(N2CCN(C(=O)Cn3nccc3C)CC2(C)C)cc1` | 6.934 |
| `CC(=O)Nc1cc(C(C)(C)C)sc1C#N` | -3.121 |
| `Cn1cnnc1C1CCCN(C(=O)NCc2ccc3c(c2)OCO3)C1` (stereo not shown) | -2.54 |
| `O=C(c1ccco1)N1CCC12CCN(c1ncc(F)cn1)CC2` | -6.99 |
| `[H][C@@]12CCN(C(=O)CC3Cc4ccccc4C3)C[C@]1([H])OCCNC2=O` | -38.08 |
| `COCCOCC(=O)Nc1ccc(F)cc1C` | 12.64 |
| `Cc1noc(C)c1CN1CCc2ncnc(-c3cnn(C)c3)c2CC1.O=C(O)C(F)(F)F` | -14.26 |
| `O=C(CCC1CCN(C(=O)c2cc[nH]c2)CC1)NCc1cccc(Cl)c1` | 8.776 |
| `CS(=O)(=O)N1CC2(CCN(CC3CCCCC3)CC2)Cc2ccccc21` | 20.3 |
| `Cc1ccc(NC(=O)N2CCCC(N(C)C)C2)c(Br)c1` (stereo not shown) | -7.77 |
| `Cc1cc(C(=O)NCc2cccnc2N2CCCC(O)C2)[nH]n1` (stereo not shown) | -14.83 |
| `O=C(O)C(F)(F)F.[H][C@]12CCC(=O)N(Cc3ccncc3)[C@@]1([H])CCN2C(=O)Cc1ccccc1` | -5.177 |
| `N#Cc1c(C2CCOC2)cc(-c2ccc(N3CCCCC3)cc2)nc1N` (stereo not shown) | -1.724 |
| `N#Cc1nc(COc2ccc3c(c2)OCO3)oc1NC1CCCCC1` | 17.66 |
| `Cc1ccsc1CN(C)C(=O)C1CCCN(C(N)=O)C1` (stereo not shown) | 0.4515 |
| `COCCn1c2c(ccc1=O)CCN(C(=O)Cc1ccsc1)CC2` | 3.954 |
| `CN(C)c1ccc(CNC(=O)Nc2ccc(S(C)(=O)=O)nc2)cc1` | 12.21 |
| `O=C(O)C(F)(F)F.c1cc(CNCC2Cn3nncc3CO2)co1` (stereo not shown) | 1.554 |
| `COc1cc(C)ccc1OCc1nc(C(=O)N2CCCNC(=O)C2)co1` | 6.294 |
| `CCNC(=O)CCN1CCCC1c1cccc2c1OCCO2` (stereo not shown) | -1.977 |
| `O=C(Cn1cc(I)cn1)NCC1CCC1` | 5.148 |
| `O=C(NCc1nn(-c2ccccc2)c2c1CCC2)NC1CCC(O)CC1` (stereo not shown) | -44.79 |
| `CN(Cc1nccn1C)C(=O)C1COCC(=O)N1Cc1ccccc1` (stereo not shown) | -0.7941 |
| `NC(=O)c1ccc(CN2CCCC(N3CCCCCC3)C2)cc1` (stereo not shown) | -21.39 |
| `CC(C)CN1CCN(C)C2(CCN(c3nccs3)CC2)C1=O.O=C(O)C(F)(F)F` | -2.535 |
| `O=C(O)c1ccc(S(=O)(=O)Nc2ccccc2CC(F)(F)F)c(F)c1` | -4.757 |
| `O=C(CN1C(=O)CCC1=O)N1CCOCC1` | -11.8 |
| `O=C(O)C(F)(F)F.[H][C@@]12CN(CC)CCO[C@]1([H])CN(C(=O)c1cocn1)C2` | 5.114 |
| `CCn1cnnc1C1CCN(C(=O)c2ccc3c(c2)nnn3C)CC1` | 11.04 |
| `CCC1c2cccn2CCN1C(=O)c1ccno1` (stereo not shown) | -6.957 |
| `COc1cccc(CNC(C)c2ccc(-n3ccnc3)cc2)c1OC.Cl` (stereo not shown) | -5.073 |
| `CCC(C)N(Cc1cccnc1)Cc1cc2c(cc1Cl)OCO2` (stereo not shown) | -3.795 |
| `Cc1noc(C)c1CN(C)C(=O)c1ccc(C(F)(F)F)nc1` | -10.68 |
| `CCOc1ccc(CNC(=O)N2CCCC(CO)C2)cc1F` (stereo not shown) | 0.2249 |
| `Cc1csc(CCCNc2ccc(S(N)(=O)=O)cc2C#N)n1` | -22.04 |
| `Cc1cc(CN(C)C(=O)c2cccc(CCC(C)(C)O)c2)no1` | -1.158 |
| `CCC[C@@H](NC(N)=O)C(=O)N1Cc2ccccc2-c2ccccc2C1` | 3.308 |
| `N#Cc1ccc(F)c(CN2CCCC2Cn2cccn2)c1` (stereo not shown) | 2.154 |
| `CCn1ccnc1CN1CCCN(C(=O)c2ccsc2)CC1` | -14.28 |
| `O=C(NCCc1nnc2n1CCC2)NCC1(c2ccc(F)cc2)CC1` | -4.102 |
| `Cc1nn(-c2ccc(C(=O)O)cc2)c2c1C(c1ccsc1)SCC(=O)N2` (stereo not shown) | -7.247 |
| `O=C(O)C(F)(F)F.[H][C@]12CCN(Cc3csc(C)n3)[C@@]1([H])C[C@H](C(=O)N1CCOCC1)O2` | 10.11 |
| `Clc1snnc1CN1CCOC(CNc2cccnn2)C1` (stereo not shown) | -1.8 |
| `CC(CN1CCOCC1)n1cncc1-c1ccc2c(c1)CCCN2C.Cl` (stereo not shown) | -15 |
| `COc1ccc(OCc2nc(C(=O)NCCN3CCOCC3)co2)cc1` | -9.022 |
| `CC(NC(=O)CNC(=O)OC(C)(C)C)c1ccc(Cl)s1` (stereo not shown) | 6.236 |
| `Cc1ccccc1C(C(=O)NCc1nc(-c2ncccn2)no1)N(C)C` (stereo not shown) | 0.5394 |
| `O=C(Nc1ccccc1F)N1CCN(Cc2noc(C3CC3)n2)CC1` | -0.5062 |
| `Cc1c(C(=O)N2CCN(c3ncccn3)CC2)n(C)c2ccc(Cl)cc12` | -9.545 |
| `O=C(c1ccc(N2CCCC2)nn1)N1CCCc2ccc(F)cc21` | 3.127 |
| `c1cc(CNCc2ccnc(N3CCOCC3)c2)c2c(c1)OCCO2` | 2.711 |
| `Cc1csc(C2(NC(=O)NCCN3CCOCC3)CCC2)n1` | -1.536 |
| `CC(Cn1ccnc1)NS(=O)(=O)c1ccc(F)c(Cl)c1` (stereo not shown) | 3.369 |
| `CCC(CC)NC(=O)Cn1cc(C(N)=O)c(-c2ccccc2)n1` | 4.561 |
| `O=C(CNCC1CCCN1c1cccnn1)NCCc1cccs1` (stereo not shown) | -15.11 |
| `COCCNC(=O)c1cc(COc2cncc(Cl)c2)on1` | -3.279 |
| `CC1CCCN1Cc1cccc(C(=O)Nc2ccc3c(c2)CCC3=O)c1` (stereo not shown) | -2.63 |
| `COCCN1CCCC(O)(CN2CCCN(c3ncccn3)CC2)C1=O` (stereo not shown) | 3.373 |
| `CNC(=O)c1ccc(C2CN(Cc3ccc(F)cc3)CCO2)nc1` (stereo not shown) | -5.704 |
| `Cn1cnc2c1C(COCC1CC1)CN(C(=O)c1cscn1)C2.O=C(O)C(F)(F)F` (stereo not shown) | 0.2257 |
| `Cc1noc(C)c1S(=O)(=O)NCC(O)c1ccc2c(c1)CCO2` (stereo not shown) | -12.25 |
| `Cc1nn(CCNC(C)Cn2ccnc2)c(C)c1Cl` (stereo not shown) | -0.1494 |
| `CSc1ccc(C(C(=O)O)N2CCC(C(=O)N3CCCC3)CC2)cc1` (stereo not shown) | -9.985 |
| `NC(=O)C1CCC(NC(=O)COc2ccc(Cl)c(Cl)c2)CC1` (stereo not shown) | -2.336 |
| `Cc1cc(C)c(C(=O)N(CCO)Cc2ccccc2F)c(=O)[nH]1` | 5.716 |
| `[H][C@]12CC[C@]([H])(CN(Cc3ccccc3)C1)N(C(=O)OCC)C2` | -5.36 |
| `CC(C)N1C[C@H](O)C[C@H]1c1nc(-c2ccc(OC(F)(F)F)cc2)no1` | 12.33 |
| `CCN(CC)C(=O)CNC(=O)c1ccc(-c2ccsc2)nc1C` | 20.5 |
| `CNC(=O)c1cn[nH]c1C1CCN(Cc2sccc2C)C1` (stereo not shown) | -0.9748 |
| `Cc1cccnc1NCCNC(=O)c1cnc(-c2ccccn2)nc1O` | 25.81 |
| `CC(C)NC(=O)c1nnn(-c2cccc(C(F)(F)F)c2)c1C1CC1` | 6.979 |
| `CCN1CCCC(c2c(-c3ccccc3)ncn2CCCO)C1` (stereo not shown) | 11.22 |
| `[H][C@]12CC[C@]([H])(CN(CC(=O)N(C)C)C1)N(C(=O)CCCn1cncn1)C2` | -1.217 |

6 of the entries, repeated:

| Compound | effect |
|---|---|
| `O=C(O)c1ccc(S(=O)(=O)Nc2ccccc2CC(F)(F)F)c(F)c1` | -4.757 |
| `NC(=O)C1CCC(NC(=O)COc2ccc(Cl)c(Cl)c2)CC1` (stereo not shown) | -2.336 |
| `Cc1csc(CCCNc2ccc(S(N)(=O)=O)cc2C#N)n1` | -22.04 |
| `CN(CCc1ccccc1)Cc1cc(C(=O)N2CCN(C)C(=O)C2)no1` | 14.77 |
| `CCC(CC)NC(=O)Cn1cc(C(N)=O)c(-c2ccccc2)n1` | 4.561 |
| `CN(Cc1nccn1C)C(=O)C1COCC(=O)N1Cc1ccccc1` (stereo not shown) | -0.7941 |

Data taken from ChEMBL document CHEMBL3988442, “University of Dundee, Small-Polar-MMV Screening Library” (2021).